Data reported in PubChem BioAssay AID1487 (National Center for Advancing Translational Sciences (NCATS), 2009).
Where “and” joins values, the source holds several entries; their conditions need not be identical. Equal values may be shown once. Some of the results follow. These are further read-outs of the screen, such as a control signal, another cell line or another target. No call is given for them. Most of these compounds were active or inconclusive in the main read-out, so they are no random draw. Potencies come from curve fits of mixed quality, noted in brackets.

Test: qHTS Assay for Modulators of Lamin A Splicing
Conditions: HeLa LMNA splicing GFP/RFP minigene ratio, 48 h
Procedure, shortened: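 Read-out is the ratio of GFP to DsRed2 object intensity, acquired by 488 nm laser-scanning cytometry on HeLa lamin A-EGFP minigene reporter cells. Compound incubation 48 hrs at 37 °C in Opti-MEM with 2% FBS; DMSO 0.5% final.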

[1] = measured here: RFP viability control channel
[2] = measured here: GFP splicing reporter channel

CCc1ccc(CCC(=O)Nc2sc3c(c2C#N)CCCC3)o1
AC50 [1]: 3.55 µM [rising, full curve]

COc1ccc(-n2c(CNC(=O)COc3ccc(Cl)cc3)n[nH]c2=S)cc1
AC50 [1]: 0.0141 µM [falling, full curve, poor fit]

COc1ccccc1NC(=O)C1=C(C)Nc2nc3ccccc3n2C1c1cccs1 (stereo not given)
AC50 [2]: 6.31 µM [rising, partial curve, poor fit]
AC50 [1]: 3.98 µM [rising, full curve]

COc1ccc(OC)c(NC(=O)C(Sc2ccccc2)c2ccccc2)c1 (stereo not given)
AC50 [1]: 12.6 µM [rising, partial curve]

COc1ccc(OCC(O)CN2CCN(Cc3ccc4c(c3)OCO4)CC2)cc1 (stereo not given)
AC50 [2]: 0.00501 µM [rising, full curve, poor fit]

Cc1ccccc1-n1c(O)c(/C=N/N2CCCCC2c2cccnc2)c(=O)[nH]c1=O (stereo not given)
AC50 [2]: 0.00447 µM [rising, full curve, poor fit]
AC50 [1]: 0.1 µM [rising, full curve, poor fit]

COC(=O)c1ccc(C(=O)N(CCN(C)C)c2nc3c(Cl)cccc3s2)cc1
AC50 [2]: 4.47 µM [rising, partial curve, poor fit]

CCOC(=O)c1[nH]cnc1N=Nc1c(O)ccc2ccccc12
AC50 [1]: 0.447 µM [rising, full curve]

O=C1CC(c2cccc([N+](=O)[O-])c2)c2c(ccc3ccccc23)N1 (stereo not given)
AC50 [2]: 35.5 µM [falling, single point]
AC50 [1]: 35.5 µM [falling, single point]

Cc1ccc(NC(=O)N2CCC(c3nc4c(nnn4Cc4cccc(Cl)c4)c(=O)[nH]3)CC2)cc1
AC50 [1]: 6.31 µM [falling, single point]

COc1cccc(N(C(=O)CNC(=O)c2ccco2)C(C(=O)NC2CCCCC2)c2ccncc2)c1 (stereo not given)
AC50 [2]: 35.5 µM [rising, single point]
AC50 [1]: 35.5 µM [rising, single point]

C=CCNc1nc(N2CCCCC2)c(C#N)c2c1CN(Cc1ccccc1)CC2
AC50 [1]: 14.1 µM [rising, single point]

CC1(C)S[C@@H]2[C@H](NC(=O)[C@@H](N)c3ccccc3)C(=O)N2[C@H]1C(=O)O[C@H]1OC(=O)c2ccccc21
AC50 [2]: 0.00282 µM [rising, full curve, poor fit]
AC50 [1]: 1.78 µM [rising, single point]

CCC1CCCCN1C(=O)c1ccc2c(c1)N(Cc1cccc(Cl)c1)C(=O)c1ccccc1S2(=O)=O (stereo not given)
AC50 [2]: 0.00562 µM [falling, full curve, poor fit]
AC50 [1]: 0.01 µM [falling, full curve, poor fit]

CCCCCn1c(Sc2nc3ccccc3s2)nc2c1c(=O)[nH]c(=O)n2C
AC50 [2]: 14.1 µM [rising, partial curve]
AC50 [1]: 14.1 µM [rising, partial curve]

Cc1cc2c(c(=O)n1Cc1cccnc1)C(Cc1ccccc1)C(C#N)=C(N)O2 (stereo not given)
AC50 [1]: 0.316 µM [rising, full curve]

CC1CC(C)CN(S(=O)(=O)c2ccc(C(=O)Nc3nnc(-c4cccs4)o3)cc2)C1 (stereo not given)
AC50 [2]: 3.98 µM [rising, partial curve, poor fit]
AC50 [1]: 12.6 µM [rising, partial curve]

CC(C)C[C@H](NC(=O)C1OC1C(=O)O)C(=O)NCCCCN=C(N)N (stereo not given in full)
AC50 [2]: 2.82 µM [rising, partial curve]
AC50 [1]: 1.78 µM [rising, partial curve, poor fit]

Cc1ccc(NC(=O)c2cccc(NC(=O)/C=C/c3ccco3)c2)cc1C
AC50 [2]: 17.8 µM [rising, single point]
AC50 [1]: 25.1 µM [rising, single point]

CCOC(=O)/C=C/C(=O)NNC(=O)c1ccccc1Cl
AC50 [2]: 25.1 µM [rising, partial curve, poor fit]
AC50 [1]: 10 µM [rising, partial curve]

O=C(CN(Cc1ccc2c(c1)OCO2)C(=O)CSc1nc2ccccc2o1)NC1CCCCC1
AC50 [2]: 11.2 µM [rising, partial curve]
AC50 [1]: 20 µM [rising, single point]

O=[N+]([O-])c1ccccc1SNc1ccccn1
AC50 [1]: 14.1 µM [rising, single point]

Cc1ccc(-n2ncc3c(NCCCN4CCOCC4)ncnc32)cc1
AC50 [1]: 0.0112 µM [falling, full curve]

Cc1ccc(S(=O)(=O)NC(CC(=O)N2CCOCC2)c2ccco2)cc1 (stereo not given)
AC50 [1]: 20 µM [rising, single point]

CSc1nc2ccc(NS(=O)(=O)c3ccccc3F)cc2s1
AC50 [2]: 11.2 µM [rising, partial curve, poor fit]
AC50 [1]: 22.4 µM [rising, single point]

COc1ccc(N2CCN(S(=O)(=O)c3ccc4c(c3)CC(C)N4C(C)=O)CC2)cc1 (stereo not given)
AC50 [2]: 0.0794 µM [falling, full curve, poor fit]

COc1ccccc1/C=C/C=N/N1CCN(Cc2ccccc2)CC1
AC50 [1]: 15.8 µM [rising, partial curve]

O=C(NCC(c1cccnc1)N1CCN(c2ccc(F)cc2)CC1)c1ccc2c(c1)OCO2 (stereo not given)
AC50 [1]: 20 µM [rising, single point]

Cc1ccn2c(C(=O)CSc3ccc(Cl)cc3)c(C)nc2c1
AC50 [1]: 35.5 µM [rising, single point]

CCC/C(=N\NC(=O)c1ccc(CSc2nncn2C)cc1)c1ccccc1
AC50 [2]: 12.6 µM [rising, single point]

COc1ccc(NC(=O)C2Cc3ccccc3N2C(=O)c2ccccc2)c(OC)c1 (stereo not given)
AC50 [2]: 39.8 µM [falling, single point]

CN1CCN(CCC(=O)N2c3ccccc3Sc3ccc(Cl)cc32)CC1
AC50 [2]: 11.2 µM [rising, partial curve, poor fit]
AC50 [1]: 14.1 µM [rising, single point]

CSCc1cc(N2CCOCC2)nc(SCc2ccc(Cl)cc2Cl)n1
AC50 [2]: 17.8 µM [falling, single point]
AC50 [1]: 28.2 µM [falling, single point]

c1ccc(-c2ccccn2)nc1
AC50 [2]: 4.47 nM [falling, full curve, poor fit] and 35.5 µM [rising, single point]
AC50 [1]: 5.01 nM [falling, full curve, poor fit] and 35.5 µM [rising, single point]

COc1cccc(/C=N/NC(=O)c2cc3c(OC)c(OC)ccc3[nH]2)c1OC
AC50 [1]: 3.98 µM [rising, full curve, poor fit]

CO[C@H]1OC2O[C@@]3(C)CC[C@H]4[C@H](C)CC[C@@H]([C@H]1C)[C@@]24OO3 (stereo not given in full)
AC50 [1]: 0.562 µM [falling, full curve, poor fit]

CC(C)(C)NC(=O)CSc1nc2ccc(NC(=O)CSc3nnc(N)s3)cc2s1
AC50 [2]: 7.94 µM [rising, partial curve]
AC50 [1]: 15.8 µM [rising, partial curve]

COc1cc(/C=C/C(=O)Nc2ccncc2)cc(OC)c1OC
AC50 [1]: 31.6 µM [rising, single point]

CCNC(=S)N(CCc1c(C)[nH]c2ccc(C)cc12)Cc1ccco1
AC50 [1]: 12.6 µM [rising, partial curve]

OCC(O)CO
AC50 [2]: 0.447 µM [falling, single point]
AC50 [1]: 0.355 µM [falling, partial curve, poor fit]

Cn1c(N)c(C(=O)COC(=O)/C=C/c2ccc(OC(F)F)cc2)c(=O)n(C)c1=O
AC50 [2]: 0.891 µM [rising, full curve]

O=C(NCc1cccc(F)c1)c1noc2c1CCCC2
AC50 [1]: 11.2 µM [rising, partial curve, poor fit]

Cc1ccc(CN2CCN(/N=C\C(Br)=C\c3ccccc3)CC2)cc1
AC50 [1]: 35.5 µM [rising, partial curve]

CNc1nc(-c2ccccc2OC)nc2ccccc12
AC50 [2]: 5.01 µM [falling, partial curve]

OCCC1CN(Cc2cnc(-c3ccc(Cl)cc3)nc2)CCN1C1CCCCC1 (stereo not given)
AC50 [1]: 0.891 µM [falling, full curve, poor fit]

CC(C)C(=O)N1CCN(c2nc(-c3ccccc3)c3c(c2C#N)CCCC3)CC1
AC50 [2]: 11.2 µM [rising, partial curve]

Cc1cc(N2CCCC(C(=O)Nc3ccc4c(c3)CCC4)C2)n2ncnc2n1 (stereo not given)
AC50 [2]: 6.31 µM [rising, full curve, poor fit]

CCN1C(=O)c2ccccc2Sc2ccc(NC(C)=O)cc21
AC50 [2]: 17.8 µM [falling, partial curve, poor fit]

COc1cc(C(=O)Nc2cc(C)ccc2OCc2cc(=O)n3c(C)csc3n2)cc(OC)c1OC
AC50 [2]: 0.447 µM [rising, partial curve, poor fit]

CSCCC(=O)N1CCCC(CNC(=O)c2ccc(-c3ccccc3)cc2)C1 (stereo not given)
AC50 [2]: 35.5 µM [falling, single point]

Fc1ccc(N/N=C/c2cccnc2)c(F)c1
AC50 [2]: 1.26 µM [rising, full curve, poor fit]
AC50 [1]: 11.2 µM [rising, partial curve]

CCOC(=O)N1CCC(=NNC(=O)c2ccc(O)cc2)CC1
AC50 [1]: 20 µM [rising, partial curve]

CCOc1ccc(-n2c(SCc3ccc(C(=O)OC)o3)nc3c([nH]c4ccccc43)c2=O)cc1
AC50 [2]: 7.94 µM [falling, partial curve]
AC50 [1]: 11.2 µM [falling, single point]

O=C(Nc1ccc(-c2cn3ccsc3n2)cc1)C1COc2ccccc2O1 (stereo not given)
AC50 [2]: 22.4 µM [rising, partial curve, poor fit]
AC50 [1]: 35.5 µM [rising, single point]
